Measurements from the supplement of paper PMC3741180, “A Novel High Throughput Biochemical Assay to Evaluate the HuR Protein-RNA Complex Formation” (PLoS ONE, 2013).
This is one part of the list. Single values are uncertain here, since repeats match poorly. Square brackets hold non-standard residues; d marks the D form. Peptide text beside a SMILES is read from it. * marks the point of attachment. NHCH2CH2OH = OCCN*; For = O=C*

By UniProt entry, the sequences of proteins in these tests, tags left out.
UniProt Q15717, whole entry: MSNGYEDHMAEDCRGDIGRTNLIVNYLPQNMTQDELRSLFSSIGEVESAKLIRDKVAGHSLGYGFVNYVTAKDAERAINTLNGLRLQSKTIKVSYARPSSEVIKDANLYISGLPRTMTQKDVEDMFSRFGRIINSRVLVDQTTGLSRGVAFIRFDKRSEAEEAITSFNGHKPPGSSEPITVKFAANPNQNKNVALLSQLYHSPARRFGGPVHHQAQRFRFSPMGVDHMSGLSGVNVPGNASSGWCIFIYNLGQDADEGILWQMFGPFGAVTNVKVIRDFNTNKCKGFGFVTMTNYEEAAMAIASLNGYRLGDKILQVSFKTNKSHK

Molecular target: HuR (ELAVL1) - TNFalpha ARE RNA complex (UniProt Q15717)
Assay: AlphaScreen HuR-RNA complex signal Z-score relative to positive controls (secondary screen) (Z-score (SD units of positive control)); higher = more complex signal
Settings: screen stage: secondary re-screen

Compound	AlphaScreen HuR-RNA complex signal Z-score
CCOC(=O)[C@H](CCc1ccccc1)N[C@H]1CCc2ccccc2N(CC(=O)O)C1=O	2.02
COc1ccc(-c2cc(C(F)F)nn2-c2ccc(S(N)(=O)=O)cc2)cc1F	0.401
Nc1ccn([C@@H]2O[C@H](CO)[C@@H](O)[C@@H]2O)c(=O)n1	0.208
CC(=O)OCC1=C(C(=O)O)N2C(=O)[C@@H](NC(=O)Cc3cccs3)[C@H]2SC1	0.844
CN1CCN(CC/C=C2/c3ccccc3Sc3ccc(S(=O)(=O)N(C)C)cc32)CC1	1.69
O=C1CCc2cc(OCCCCc3nnnn3C3CCCCC3)ccc2N1	0.455
C[C@]12CC[C@@H]3c4ccc(OS(=O)(=O)O)cc4CC[C@H]3[C@@H]1CCC2=O	0.916
CCCCCCCCCc1ccc(OCCOCCOCCOCCOCCOCCOCCOCCOCCO)cc1	-0.331
C=CC1=C(C(=O)O)N2C(=O)[C@@H](NC(=O)/C(=N\O)c3csc(N)n3)[C@H]2SC1	1.31
C[C@]12CCC(=O)C=C1C=C[C@@H]1[C@@H]2CC[C@@]2(C)[C@H]1CC[C@@]21CCC(=O)O1	1.72
COc1ccccc1OCCNCC(O)COc1cccc2[nH]c3ccccc3c12 (configuration not stated)	1.8
O=c1c(O)cccc2cc(O)c(O)c(O)c12	0.0905
CC(C)[C@H]1CC[C@H](C(=O)N[C@H](Cc2ccccc2)C(=O)O)CC1	2.55
CCn1cc(C(=O)O)c(=O)c2cc(F)c(N3CCN(C)CC3)cc21	-0.244
CC(C(=O)O)c1ccc(-c2ccccc2)c(F)c1 (configuration not stated)	0.937
COC1=CC(=O)C=C(OC)C1=O	0.323
CCc1nc(N)nc(N)c1-c1ccc(Cl)cc1	1.12
CC/C(=C(/CC)c1ccc(O)cc1)c1ccc(O)cc1	-0.135
NC(=O)N1c2ccccc2CC(=O)c2ccccc21	2.3

2 successive compounds out of the list so far:
Compound	AlphaScreen HuR-RNA complex signal Z-score
CCOC(=O)[C@H](CCc1ccccc1)N[C@H]1CCc2ccccc2N(CC(=O)O)C1=O	2.02
COc1ccc(-c2cc(C(F)F)nn2-c2ccc(S(N)(=O)=O)cc2)cc1F	0.401

(further entries)

Compound	AlphaScreen HuR-RNA complex signal Z-score
CC(C)NCC(O)c1ccc(O)c(O)c1 (configuration not stated)	0.824
OCCc1ccccc1	0.0775
Cc1onc(-c2ccccc2)c1C(=O)N[C@@H]1C(=O)N2[C@@H]1SC(C)(C)[C@@H]2C(=O)O	1.1
Cc1ccc(N(CC2=NCCN2)c2cccc(O)c2)cc1	1.54
Cc1cc(C(C)(C)C)cc(C)c1CC1=NCCN1	1.51
NS(=O)(=O)c1cc(C(=O)O)c(NCc2ccco2)cc1Cl	1.17
COc1ccc(C(=O)CC(=O)c2ccc(C(C)(C)C)cc2)cc1	1.87
COC(=O)[C@H](OC(C)=O)[C@H]1C(C)(C)[C@H](OC(C)=O)[C@@H]2CC3=C4CC(=O)O[C@@H](c5ccoc5)[C@]4(C)CC[C@@H]3[C@@]1(C)C2=O	-0.463
CC(=O)OCC1=C(C(=O)O)N2C(=O)[C@@H](NC(=O)CSc3ccncc3)[C@H]2SC1	0.134
CO[C@@H]1[C@@H](OC(N)=O)[C@@H](O)[C@H](Oc2ccc3c(O)c(NC(=O)c4ccc(O)c(CC=C(C)C)c4)c(=O)oc3c2C)OC1(C)C	1.59
CC[C@]1(O)C[C@@H]2CN(CCc3c([nH]c4ccccc34)[C@@](C(=O)OC)(c3cc4c(cc3OC)N(C)[C@H]3[C@@](O)(C(=O)OC)[C@H](OC(C)=O)[C@]5(CC)C=CCN6CC[C@]43[C@@H]65)C2)C1	1.55
CN(C)c1ccc(C(=C2C=CC(=[N+](C)C)C=C2)c2ccc(N(C)C)cc2)cc1	-0.499
CC(C)c1nc(N(C)S(C)(=O)=O)nc(-c2ccc(F)cc2)c1/C=C/[C@@H](O)C[C@@H](O)CC(=O)O	0.818
CC(C)C[C@@H](NC(=O)[C@H](C)NC(=O)CNC(=O)[C@@H](NC=O)C(C)C)C(=O)N[C@@H](C)C(=O)N[C@@H](C(=O)N[C@H](C(=O)N[C@H](C(=O)N[C@@H](Cc1c[nH]c2ccccc12)C(=O)N[C@H](CC(C)C)C(=O)N[C@@H](Cc1c[nH]c2ccccc12)C(=O)N[C@H](CC(C)C)C(=O)N[C@@H](Cc1c[nH]c2ccccc12)C(=O)N[C@H](CC(C)C)C(=O)N[C@@H](Cc1c[nH]c2ccccc12)C(=O)NCCO)C(C)C)C(C)C)C(C)C (For-VGA[dL]A[dV]VVW[dL]W[dL]W[dL]W-NHCH2CH2OH)	1.03
NC(C(=O)O)C(O)C(=O)O (stereo not drawn) [d,l-threo-3-HYDROXYASPARTIC ACID]	0.534
Cc1nnc(SCC2=C(C(=O)O)N3C(=O)[C@@H](NC(=O)Cn4cnnn4)[C@H]3SC2)s1	0.644
COc1cccc2c1C(=O)c1c(O)c3c(c(O)c1C2=O)C[C@@](O)(C(C)=O)C[C@@H]3O[C@H]1C[C@H](N)[C@H](O)[C@H](C)O1	1.02
CC(COc1ccccc1)NC(C)C(O)c1ccc(O)cc1 (configuration not stated)	1.02
